Results deposited as PubChem BioAssay AID1259308 (NCATS, 2017).

- Assay: 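Knock-downs that increase output of a recombinant reporter protein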 (primary screen)
- System: human HEK293 embryonic kidney cells stably expressing firefly luciferase (HEK-CMV-Luc2-Hygro)
- Reagent: single siRNA against human genes, 0.8 pmol siRNA per well
- Timing: 72 h
- Measured: 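Reporter luminescence and viable-cell signal on separate replicate plates, given as percent of non-targeting control and median/MAD z-scores, plus per-cell luciferase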
- Scale: total luciferase, z-score: higher = more reporter protein produced
- Rule for the call: 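An siRNA counts as active if its total luciferase robust z-score exceeds 3; genes with two or more such siRNAs out of three were retested with fresh siRNAs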
- Calls: active = raised luciferase; inactive = no rise
This is an unselected part of about 59,000 reagents tested. In the full data, about 1,510 (2.6%) were called active. 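Calls use total luciferase alone and ignore viability, so some active siRNAs may act by altering cell number.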 Unmarked entries are inactive. The numbers tell different reagents against one gene apart. Further read-outs or replicates are left out here.

total luciferase, z-score, by gene and reagent
OSBP: #1 -0.0717; #2 0.485; #3 2.16
ULBP1: #1 1.28; #2 -0.269; #3 0.81
KRT18P55: #1 0.725; #2 0.0845; #3 0.393
KIAA2012: #1 -0.814; #2 -0.101; #3 0.32; #4 -1.32; #5 -0.408; #6 -1.99
THAP12P1: #1 0.998; #2 -1.15; #3 -0.961
DDX28: #1 0.334; #2 0.944; #3 3.15 (active)
SST: #1 -1.27; #2 1.05; #3 -0.906
INF2: #1 2.23; #2 -1.41; #3 0.0203
RNF38: #1 -0.0292; #2 -0.0875; #3 0.5
SERAC1: #1 -0.554; #2 -0.286; #3 0.679
PIK3R2: #1 -0.164; #2 -0.612; #3 -0.313
GAB1: #1 1.19; #2 -0.1; #3 1.55
CD151: #1 1.19; #2 0.314; #3 -1.72
PIGW: #1 0.0384; #2 0.507; #3 -1.08
BOD1L1: #1 3.35 (active); #2 0.466; #3 0.555
DRC7: #1 0.172; #2 -0.318; #3 -0.282
CCDC15: #1 1.69; #2 2.16; #3 -0.192
TTC32: #1 0.959; #2 0.605; #3 1.49

Part of the list above, reformatted.
CD151 #1
- total luciferase, z-score: 1.19

CD151 #2
- total luciferase, z-score: 0.314

CD151 #3
- total luciferase, z-score: -1.72

PIGW #1
- total luciferase, z-score: 0.0384
